Measurements from PubChem BioAssay AID2685 (National Center for Advancing Translational Sciences (NCATS), 2010).
The other results are listed elsewhere or left out. Shown are side measurements of this screen, not its main read-out; they come without a call. Most of these compounds were active or inconclusive in the main read-out, so they are no random draw. Words in brackets tell the shape of the fitted curve; partial curves, single points and poor fits give uncertain potencies.

Assay: qHTS Assay for Lipid Storage Modulators in Drosophila S3 Cells;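 for cell number change: cells counted by Cell Tracker Red CMTPX staining in the red channel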
Settings: BODIPY lipid droplet fluorescence, 18-24 h; for cell number change: measured here: cell count max response, cells fed with added oleic acid
In short: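 Drosophila S3 cells loaded with oleic acid (400 uM, as added) and compounds at several concentrations; lipid droplets imaged by 488-nm laser-scanning cytometry, 500–530 nm intensity and object ratio to cell channel. Percent activity normalized to 20 uM Triacsin C.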

[1] = measured here: lipid fluorescence (Fed channel) AC50, cells fed with added oleic acid
[2] = measured here: cell number channel AC50, cells fed with added oleic acid

Compound | cell number change | AC50 [1] | AC50 [2]
Cc1cc(SCC(=O)c2cccs2)n2nc(C)c(-c3ccccc3)c2n1 | -13.5% | 29.1 µM [falling, single point] | 
CN1C(=S)SC(/[N+]([O-])=C\c2cccs2)C1(C)C (stereo not drawn) | 36.8% |  | 29.1 µM [rising, single point]
COc1ccc(-c2csc(NC(=S)NC(=O)/C=C/c3ccccc3)n2)cc1Br | 20.7% | 0.731 µM [falling, full curve] | 0.92 µM [falling, full curve, poor fit]
CCCCCCc1ccc(N2C[C@H](CCCCC)[C@@H](CC(=O)NCc3ccccc3)C2=O)cc1 | 42.4% |  | 29.1 µM [rising, single point]
CCC(=O)NC(=S)Nc1ccc(NC(=O)COc2ccc([N+](=O)[O-])cc2)cc1 | 32.3% |  | 25.9 µM [rising, single point]
Cc1cccc2c1CC(C)(C)N/C2=C\C(N)=O | -9.88% |  | 0.103 µM [falling, partial curve, poor fit]
COc1cccc(C(=O)NCC(=O)OCC(=O)Nc2ncc(Cl)cc2Cl)c1 |  | 6.51 µM [rising, single point] | 
COc1ccc(N2CCN(S(=O)(=O)c3c(C)[nH]c(C)c3C(=O)N3CCCCC3)CC2)cc1 | -3.29% | 2.59 µM [falling, single point] | 
O=C(Nc1nc(-c2ccccc2)cs1)C1c2ccccc2Oc2ccccc21 | -28.2% |  | 
Cc1ccc(OCC(=O)Nc2cc(S(=O)(=O)N3CCCCC3)ccc2C)c([N+](=O)[O-])n1 | -36.5% | 32.6 µM [falling, partial curve] | 32.6 µM [falling, single point]
O=[N+]([O-])c1cccc(/C=N/n2cnnc2)c1O | 29.6% | 10.3 µM [rising, partial curve, poor fit] | 
CS(=O)(=O)c1ccc(Cl)c(NC(=O)COC(=O)CNC(=O)c2sc3ccccc3c2Cl)c1 | -3.62% |  | 
Cc1oc2cc3oc(=O)c(CCC(=O)N[C@H](C(=O)O)C(C)C)c(C)c3cc2c1C | 18.1% | 6.51 µM [rising, partial curve, poor fit] | 
C/C(=N\NC(=O)c1nnn(-c2nonc2N)c1CN1CCCCCC1)c1ccc(Br)cc1 | -10.3% | 0.13 µM [rising, full curve] | 6.51 µM [rising, single point]
CCc1c(C(=O)Nc2cc(C)ccc2OC)[nH]c(C)c1C(C)=O |  | 5.17 µM [rising, partial curve] | 4.11 µM [rising, partial curve]
CNc1nc2c(c(=O)n(C)c(=O)n2C)n1Cc1ccccc1 | -31.4% |  | 7.31 µM [falling, partial curve, poor fit]
Cc1ccc2cc(CN(Cc3ccco3)C(=O)c3ccccc3)c(=O)[nH]c2c1C | -10.6% | 1.64 µM [rising, single point] | 
Cc1ccc(NC(=O)CCNC(=O)c2ccc(Br)cc2)cc1S(=O)(=O)N1CCCCCC1 | -16.1% | 29.1 µM [falling, single point] | 
Cc1cc(C)n(-c2nc3c(c(=O)[nH]c(=O)n3C)n2CC(O)COc2ccccc2)n1 (stereo not drawn) | -3.1% |  | 
O=C(CSc1nnc(Cc2ccccc2)o1)c1ccc2c(c1)OCO2 | 62.7% |  | 13 µM [rising, partial curve]

Compound | cell number change | AC50 [1] | AC50 [2]
O=C(Cc1cccs1)N1CCCC(c2nc3c(nnn3Cc3ccc(F)cc3)c(=O)[nH]2)C1 (stereo not drawn) | -19.2% | 29.1 µM [falling, single point] | 
Cc1ccc(-n2c(C)cc(C(=O)COc3cccnc3[N+](=O)[O-])c2C)cc1 | -21.5% | 29.1 µM [falling, single point] | 
CCc1cccc2c(C(=O)COC(=O)c3ccc(O)cc3)c[nH]c12 | -43.2% | 1.46 µM [falling, full curve] | 36.6 µM [falling, partial curve, poor fit]
CCNC(=O)CC1C(=O)N(c2ccccc2)C(=O)N1CCc1ccc(OC)cc1 (stereo not drawn) | 48.2% |  | 20.6 µM [rising, single point]
Cc1cc(C(C2C(=O)CC(C)(C)CC2=O)C2C(=O)CC(C)(C)CC2=O)cc(C)c1OC(F)F | -31.6% | 0.398 µM [falling, single point] | 
CCCCn1c(SCC(=O)c2ccc(OC)c(OC)c2)nc2cc(S(N)(=O)=O)ccc21 | 104% | 1.84 µM [rising, partial curve] | 0.651 µM [rising, single point]
Cc1cc(C)c2c(=O)n(CC(=O)Nc3ccc(Br)c(C)c3)sc2n1 | -68% | 29.1 µM [falling, single point] | 32.6 µM [falling, partial curve, poor fit]
CCOc1cc(N2CCOCC2)c(OCC)cc1NC(=O)CN1C(=O)NC(Cc2ccccc2)C1=O (stereo not drawn) |  | 0.731 µM [falling, full curve] | 0.326 µM [falling, partial curve, poor fit]
CC(=O)c1cc2c(cc1NS(=O)(=O)c1ccccc1)OCO2 |  | 1.64 µM [rising, partial curve] | 1.16 µM [rising, partial curve]
Cc1cc(=O)[nH]c(=S)n1-c1ccccc1 | -87.1% | 29.1 µM [falling, single point] | 2.91 µM [falling, partial curve]
O=C(NCc1ccccc1)c1ccc(S(=O)(=O)NCc2ccco2)cc1 | 30.2% |  | 
COc1ccc2c(c1)c(=O)c(C(=O)c1ccc(F)cc1)cn2CC(=O)Nc1ccc(F)cc1 | 8.17% | 10.3 µM [rising, partial curve, poor fit] | 
CCOC(=O)CSC(CC)C(=O)Nc1nnc(CC)s1 (stereo not drawn) | -101% | 23.1 µM [falling, single point] | 9.2 µM [falling, partial curve]
Cc1ccccc1C(=O)N1CCCN(C(=O)c2ccccc2C)CC1 | 1.81% | 25.9 µM [falling, single point] | 
CN1CCN(S(=O)(=O)c2cccc(C(=O)N(C)Cc3c(F)cccc3Cl)c2)CC1 | -8.67% | 20.6 µM [rising, single point] | 
c1ccc(CN2CCC(Nc3ncnc4sccc34)CC2)cc1 | 24.8% | 0.231 µM [falling, full curve, poor fit] | 4.11 µM [rising, full curve, poor fit]
Cc1ccc(NC(=S)N2CCCC2)cc1C | -2.31% |  | 
COc1ccc(-n2c(C)cc(C(=O)CN3C(=O)c4ccccc4C3=O)c2C)cc1 | -15.9% | 29.1 µM [falling, single point] | 
Cc1onc(-c2ccccc2)c1C(=O)Nc1ccccc1C#N | 19.7% |  | 
Cc1ccc(S(=O)(=O)N2CCC(C(=O)C3C(=O)CCCC3=O)CC2)cc1 | -25.1% | 5.8 µM [falling, full curve, poor fit] | 

Retrieved one by one from the list above (2):
Compound | cell number change | AC50 [1] | AC50 [2]
CCc1cccc2c(C(=O)COC(=O)c3ccc(O)cc3)c[nH]c12 | -43.2% | 1.46 µM [falling, full curve] | 36.6 µM [falling, partial curve, poor fit]
Cc1ccc(S(=O)(=O)N2CCC(C(=O)C3C(=O)CCCC3=O)CC2)cc1 | -25.1% | 5.8 µM [falling, full curve, poor fit] | 

The listing continues.

Compound | cell number change | AC50 [1] | AC50 [2]
CC(C1CC1)N(Cc1ccccc1)C(=O)NC(=O)c1ccccc1 (stereo not drawn) | 20.8% |  | 
CC(C)(C)C1CCC(C(=O)Nc2cccnc2)CC1 (stereo not drawn) | -5.65% |  | 
O=C(CCNS(=O)(=O)c1ccc(Br)cc1)N1CCCCCCC1 | -27% | 23.1 µM [falling, partial curve] | 
CCN(CC)CCNS(=O)(=O)c1ccc(/C=C/C(=O)O)cc1 |  | 3.26 µM [rising, single point] | 
CC(C)CC(=O)NN1CCCCC1 | -27.2% | 20.6 µM [falling, partial curve] | 
O=C(c1ccc(CN2CCOCC2)cc1)N1CCN(Cc2ccccc2)CC1 | 10.8% |  | 
Cc1noc(/C=C/N(C)C)c1S(=O)(=O)N1CCCC(C(=O)NCc2ccc(F)cc2)C1 (stereo not drawn) | 9.53% | 4.61 µM [rising, full curve, poor fit] | 
CCCNC(=O)c1ccccc1NC(=O)COc1cccc2c1OC(C)(C)C2 | -19.7% | 6.51 µM [rising, single point] | 
O=C(O)CSc1nnc(-c2ccc(Cl)cc2Cl)n1-c1ccc(Br)cc1 | -26.2% |  | 
OCC1(CC2CCCCO2)CCN(Cc2nc3ccccc3[nH]2)CC1 (stereo not drawn) | -17.4% | 0.0058 µM [falling, full curve, poor fit] | 
C/C(=N\NC(=O)c1c(Cl)cnn1C)c1ccc(NC(=O)c2ccc(Br)o2)cc1 | 53% | 5.17 µM [falling, partial curve] | 29.1 µM [rising, single point]
CCc1nnc(NS(=O)(=O)c2ccc(NC(=S)NC(=O)/C=C/c3ccc([N+](=O)[O-])cc3)cc2)s1 | -2.45% | 7.31 µM [falling, single point] | 
CCOC(=O)N1CCN(C2CC(=O)N(c3ccccc3)C2=O)CC1 (stereo not drawn) | 0.0646% |  | 
O=C(Nc1ccc(N2CCN(C(=O)c3cccs3)CC2)c(Cl)c1)c1ccco1 | 8.12% | 0.731 µM [rising, single point] | 
O=[N+]([O-])c1ccc2nccn2c1 | 4.32% | 4.61 µM [rising, single point] | 
NC(=O)c1ccsc1NC(=O)COC(=O)/C=C/c1ccccc1 | -3.04% | 1.46 µM [rising, partial curve] | 
COc1ccc(/C=C/c2onc(C)c2S(=O)(=O)N2CCC(C(=O)N3CCC(C)CC3)CC2)cc1 | -8.66% | 0.651 µM [rising, full curve, poor fit] | 
NS(=O)(=O)c1ccc(CCNC(=O)c2coc3ccccc3c2=O)cc1 | 2.78% | 29.1 µM [rising, single point] | 
